The values that follow come from PubChem BioAssay AID298 (DTP/NCI, 2004).

The list shows only some results of the screen, not a fair sample: it gathers tests that were run many times, whatever their T/C, doses with no T/C, and many T/C values between a quarter and a half above the control. Further doses and runs are listed elsewhere. T/C gives the treated animals as a percentage of the vehicle group. Schedules are NCI's codes, taken here to give the interval after Q, in days (D) or hours (H), and the number of doses after X. Some entries were tested several times; the results are listed from low to high. Some T/C values carry the count of animals alive at the toxicity check (mostly the fifth day); without a count, all were alive then. Some T/C values are negative: the treated tumours shrank. Some entries give survivors of the animals treated and no T/C: the source files T/C as zero there, which appears to mark a toxic dose or a test without result, not a measured value. Survivors were counted at the toxicity check, usually on the fifth day, unless a day is given; later deaths do not show.

The test system of this experiment is MX-1 breast xenograft, intrarenal, nude mice, tumor weight. Description: NCI In Vivo Anticancer Drug Screen. Data for tumor model Human Mammary Carcinoma MX-1 Xenograft (intrarenal inoculation) in NU/NU BALB/C (nude) mice. The following applies: T/C endpoint: mean tumor weight change, higher T/C = larger tumour; for T/C: evaluated on day 11. In a few lines: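 T/C readout: treated-group measurement over vehicle-control measurement, using tumor size or survival in tumor-bearing mice.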
(In general: In xenograft studies the graft and the host belong to different species.)

Where [1] appears, read: dose: 150.0 mg/kg/injection, schedule: Q04DX003 (ip), vehicle: saline with Tween-80.
Setting [2] is: dose: 300.0 mg/kg/injection, schedule: Q04DX003 (ip), vehicle: saline with Tween-80.
The mark [3] stands for this setting: dose: 600.0 mg/kg/injection, schedule: Q04DX003 (ip), vehicle: saline with Tween-80.
Setting [4] is: dose: 1200.0 mg/kg/injection, schedule: Q04DX003 (ip), vehicle: saline with Tween-80.
Setting [5] is: dose: 200.0 mg/kg/injection, schedule: Q04DX003 (ip), vehicle: saline with Tween-80.
The mark [6] stands for this setting: dose: 12.5 mg/kg/injection, schedule: Q04DX003 (ip), vehicle: water.

`S=C1CCCCN1`: the survivor count is on record as 0 of 6 on day 11 (dose: 600.0 mg/kg/injection, schedule: Q04DX003 (ip), vehicle: distilled water + Tween-80 + alcohol) and 0 of 6 on day 11 (dose: 1200.0 mg/kg/injection, schedule: Q04DX003 (ip), vehicle: distilled water + Tween-80 + alcohol).

For the molecule `CC(C)N1C(=O)N(Cl)C2C1N(Cl)C(=O)N2Cl` (stereo not drawn), the T/C runs as follows: (dose: 12.5 mg/kg/injection, schedule: Q04DX003 (ip), vehicle: saline with Tween-80) 125 % of control; (dose: 50.0 mg/kg/injection, schedule: Q04DX003 (ip), vehicle: saline with Tween-80) 130 % of control. The survivor count reads like this: (dose: 100.0 mg/kg/injection, schedule: Q04DX003 (ip), vehicle: saline with Tween-80) 1 of 6 on day 11; under setting [1], 3 of 6 on day 11; under setting [2], 0 of 6 on day 11; under setting [3], 0 of 6 on day 11; under setting [4], 0 of 6 on day 11.

For `Nc1ccc2ccc(N)cc2c1`, the survivor count reads like this: under setting [3], 1 of 6 on day 11; under setting [4], 0 of 6 on day 11.

Take `COc1cc2c(oc(=O)c3cc(C)cc(OC)c32)c2c(C3OC(C)C(O)C(C)(O)C3O)ccc(O)c12` (stereo not drawn): the T/C (dose: 6.25 mg/kg/injection, schedule: Q04DX003 (ip), vehicle: DMSO) is 132 and 137 % of control.

Turning to `NCCSC(C[N+](=O)[O-])c1ccccc1Cl` (stereo not drawn), the survivor count is 0 of 6 on day 11 (dose: 200.0 mg/kg/injection, schedule: Q04DX003 (ip), vehicle: saline) and 0 of 6 on day 11 (dose: 400.0 mg/kg/injection, schedule: Q04DX003 (ip), vehicle: saline).

Turning to `OC1OCC(COc2ccc(Cl)cc2)OC1O` (stereo not drawn), the survivor count (dose: 800.0 mg/kg/injection, schedule: Q04DX003 (ip), vehicle: saline with Tween-80) is given as 2 of 6 on day 11.

Turning to `CCN(CC)c1cc(C(=O)O)cc(N(CC)CC)n1`, the survivor count (dose: 200.0 mg/kg/injection, schedule: Q04DX003 (ip), vehicle: other) is recorded as 0 of 6 on day 11 and the survivor count (dose: 400.0 mg/kg/injection, schedule: Q04DX003 (ip), vehicle: other) is on record as 0 of 6 on day 11.

For `O=C(Nc1ccccc1)c1c(O)[nH]c(=S)[nH]c1=O`, the survivor count is on record as 2 of 5 on day 11 under setting [1]; 3 of 6 on day 11 under setting [5]; 0 of 6 on day 11 under setting [2]; 0 of 6 on day 11 (dose: 400.0 mg/kg/injection, schedule: Q04DX003 (ip), vehicle: saline with Tween-80); 0 of 5 on day 11 under setting [3].

On to `CCCCCCCC(=O)O[C@H]1[C@H]2[C@@H](CC1(C)C)C(=O)[C@]13O[C@H]1C(=O)[C@]1(CO1)[C@]23C`, for which, for the setting “dose: 40.0 mg/kg/injection, schedule: Q04DX003 (ip), vehicle: saline with Tween-80”, the survivor count is on record as 0 of 6 on day 11.

For the molecule `C[n+]1c(/C=N/NC(N)=S)ccc2ccccc21`, the survivor count is, setting by setting: (dose: 600.0 mg/kg/injection, schedule: Q04DX003 (sc), vehicle: saline with Tween-80) 2 of 6 on day 11; (dose: 1200.0 mg/kg/injection, schedule: Q04DX003 (sc), vehicle: saline with Tween-80) 1 of 6 on day 11; (dose: 2400.0 mg/kg/injection, schedule: Q04DX003 (sc), vehicle: saline with Tween-80) 1 of 6 on day 11.

In the case of `CCN(CC)CCC(=O)OC(C(=O)O[C@H]1C[C@@]2(O)C(OC(=O)c3ccccc3)C3C4(OC(C)=O)COC4C[C@H](O)[C@@]3(C)C(=O)[C@H](OC(C)=O)C(=C1C)C2(C)C)C(NC(=O)c1ccccc1)c1ccccc1` (stereo partly drawn), for the setting “dose: 36.0 mg/kg/injection, schedule: Q01DX009 (ip), vehicle: water”, the survivor count was 0 of 5 on day 11.

As to `CC[C@@H](C)[C@H]([C@H](CC(=O)N1CCC[C@@H]1[C@@H](OC)[C@H](C)C(=O)N[C@H](Cc1ccccc1)c1nccs1)OC)N(C)C(=O)[C@H](NC(=O)[C@@H](C(C)C)N(C)C)C(C)C`, the T/C (dose: 13.0 micrograms/kg/injection, schedule: Q04DX003 (ip), vehicle: saline + alcohol) was 137 % of control. Moreover, the survivor count reads like this: (dose: 26.0 micrograms/kg/injection, schedule: Q04DX003 (ip), vehicle: saline + alcohol) 1 of 6 on day 11; (dose: 52.0 micrograms/kg/injection, schedule: Q04DX003 (ip), vehicle: saline + alcohol) 0 of 6 on day 11.

For the molecule `Oc1c(Cl)cc(Cl)cc1C=NCCSc1ccc(Cl)cc1`, the T/C (dose: 300.0 mg/kg/injection, schedule: Q04DX003 (ip), vehicle: Klucel (hydroxypropylcellulose) (HPC)) was 126 % of control. Also, the survivor count (dose: 1200.0 mg/kg/injection, schedule: Q04DX003 (ip), vehicle: Klucel (hydroxypropylcellulose) (HPC)) is 0 of 6 on day 11 and 3 of 6 on day 11.

Regarding `CC(C)c1cc(C(=O)O)c(O)c(C(C)C)c1.CC(C)c1cc(C(=O)O)c(O)c(C(C)C)c1.[Cu]`, the T/C (dose: 25.0 mg/kg/injection, schedule: Q04DX003 (ip), vehicle: saline with Tween-80) is 126 % of control. Further, the survivor count under setting [5] is 0 of 6 on day 11.

On to `CNCCN=c1ccc2c3c1c(O)c1c(O)ccc(=O)c1c3[nH]n2CCNCCO`, for which the T/C under setting [6] was -78 % of control [5 of 6 alive on day 11]. Also, the survivor count reads like this: under setting [6], 1 of 6 on day 11 and 2 of 6 on day 11; (dose: 25.0 mg/kg/injection, schedule: Q04DX003 (ip), vehicle: water) 0 of 6 on day 11; (dose: 50.0 mg/kg/injection, schedule: Q04DX003 (ip), vehicle: water) 0 of 6 on day 11; (dose: 100.0 mg/kg/injection, schedule: Q04DX003 (ip), vehicle: water) 0 of 6 on day 11.

Consider `COc1cccc2c1C(=O)c1c(O)c3c(c(O)c1C2=O)CC(O)(/C(C)=N/NC(=O)CCCCC(=O)N/N=C(\C)C1(O)Cc2c(O)c4c(c(O)c2C(OC2CC(N)C(O)C(C)O2)C1)C(=O)c1c(OC)cccc1C4=O)CC3OC1CC(N)C(O)C(C)O1` (stereo not drawn), for which the survivor count (dose: 100.0 mg/kg/injection, schedule: Q04DX003 (sc), vehicle: water) is given as 0 of 6 on day 11.

Regarding `COc1cc2oc3c(C)c(=O)cc4oc(-c5ccccc5)cc(c2c2c1CCC(c1ccccc1)O2)c43` (stereo not drawn), the T/C (dose: 7.0 mg/kg/injection, schedule: Q04DX003 (ip), vehicle: Klucel (hydroxypropylcellulose) (HPC)) is 137 % of control [5 of 6 alive on day 11]. The survivor count (dose: 14.0 mg/kg/injection, schedule: Q04DX003 (ip), vehicle: Klucel (hydroxypropylcellulose) (HPC)) is 2 of 4 on day 11.

On to `O=C1[C@@H]2C3C=CC([C@H]4C(=O)N(CO)C(=O)[C@@H]34)[C@@H]2C(=O)N1CO`, for which the survivor count was 0 of 6 on day 11 (dose: 400.0 mg/kg/injection, schedule: Q04DX003 (ip), vehicle: Klucel (hydroxypropylcellulose) (HPC)) and 0 of 6 on day 11 (dose: 800.0 mg/kg/injection, schedule: Q04DX003 (ip), vehicle: Klucel (hydroxypropylcellulose) (HPC)).

As to `Nc1ccc(Cn2ccc3c4c(N)nc(N)nc4ccc32)cc1`, the survivor count is, setting by setting: (dose: 75.0 mg/kg/injection, schedule: Q04DX003 (sc), vehicle: saline with Tween-80) 1 of 6 on day 11; (dose: 150.0 mg/kg/injection, schedule: Q04DX003 (sc), vehicle: saline with Tween-80) 0 of 6 on day 11.

As for `CCCCNc1ccc2nnc(C)n2n1`, the survivor count is given as 0 of 6 on day 11 (dose: 600.0 mg/kg/injection, schedule: Q04DX003 (ip), vehicle: DMSO) and 0 of 6 on day 11 (dose: 1200.0 mg/kg/injection, schedule: Q04DX003 (ip), vehicle: DMSO).

On to `COc1ccc(C[C@@H]2NC[C@@H](O)[C@@H]2OC(C)=O)cc1`, for which the survivor count was 0 of 6 on day 11 under setting [3] and 0 of 6 on day 11 under setting [4].

Consider `Oc1ccc(/C=N/Nc2nnc(N/N=C/c3ccc(O)cc3O)c3ccccc23)c(O)c1`, for which the survivor count (dose: 200.0 mg/kg/injection, schedule: Q04DX003 (ip), vehicle: suspension in saline) was 3 of 6 on day 11.

Turning to `COc1cccc2c1C(=O)c1c(O)c3c(c(O)c1C2=O)CC(O)(C(=O)CO)CC3OC1CC(N)C(O)C(C)O1` (stereo not drawn), the survivor count (dose: 100.0 mg/kg/injection, schedule: Q01DX010 (sc), vehicle: saline) is listed as 2 of 6 on day 11 and the survivor count (dose: 200.0 mg/kg/injection, schedule: Q01DX010 (sc), vehicle: saline) is 0 of 6 on day 11.
